Four molecules from article PMC12647243 can be followed below.

The chains behind the UniProt entries cited, without tags or fusion partners.
UniProt Q62950: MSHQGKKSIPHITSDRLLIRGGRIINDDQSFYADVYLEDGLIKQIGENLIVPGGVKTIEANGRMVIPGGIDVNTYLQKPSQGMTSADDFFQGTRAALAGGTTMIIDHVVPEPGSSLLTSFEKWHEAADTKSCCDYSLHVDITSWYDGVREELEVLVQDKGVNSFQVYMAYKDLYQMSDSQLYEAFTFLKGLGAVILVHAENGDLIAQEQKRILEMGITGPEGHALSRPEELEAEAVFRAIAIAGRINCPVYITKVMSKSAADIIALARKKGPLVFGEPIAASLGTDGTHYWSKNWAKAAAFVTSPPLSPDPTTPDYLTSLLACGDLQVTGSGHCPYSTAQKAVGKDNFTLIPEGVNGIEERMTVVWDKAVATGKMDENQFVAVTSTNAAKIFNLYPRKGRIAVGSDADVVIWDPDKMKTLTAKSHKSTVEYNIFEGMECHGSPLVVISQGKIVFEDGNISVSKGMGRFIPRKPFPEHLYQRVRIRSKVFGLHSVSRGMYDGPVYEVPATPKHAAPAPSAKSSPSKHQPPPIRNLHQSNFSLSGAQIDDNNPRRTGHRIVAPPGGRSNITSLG
UniProt Q62951: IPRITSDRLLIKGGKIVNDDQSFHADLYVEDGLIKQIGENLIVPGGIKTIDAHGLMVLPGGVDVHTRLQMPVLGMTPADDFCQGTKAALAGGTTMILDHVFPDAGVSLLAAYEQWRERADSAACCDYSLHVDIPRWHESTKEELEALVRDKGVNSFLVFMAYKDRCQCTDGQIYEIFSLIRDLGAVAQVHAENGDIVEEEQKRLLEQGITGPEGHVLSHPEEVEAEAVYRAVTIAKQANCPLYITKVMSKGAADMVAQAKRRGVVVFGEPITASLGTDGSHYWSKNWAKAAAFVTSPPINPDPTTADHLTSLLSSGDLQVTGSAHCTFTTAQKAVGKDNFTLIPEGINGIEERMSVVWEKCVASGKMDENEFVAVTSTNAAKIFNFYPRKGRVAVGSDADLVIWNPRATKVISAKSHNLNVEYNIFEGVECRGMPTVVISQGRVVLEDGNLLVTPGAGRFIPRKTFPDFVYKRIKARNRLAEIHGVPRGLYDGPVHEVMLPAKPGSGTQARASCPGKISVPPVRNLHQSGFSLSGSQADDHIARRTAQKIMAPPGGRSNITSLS
UniProt Q62952: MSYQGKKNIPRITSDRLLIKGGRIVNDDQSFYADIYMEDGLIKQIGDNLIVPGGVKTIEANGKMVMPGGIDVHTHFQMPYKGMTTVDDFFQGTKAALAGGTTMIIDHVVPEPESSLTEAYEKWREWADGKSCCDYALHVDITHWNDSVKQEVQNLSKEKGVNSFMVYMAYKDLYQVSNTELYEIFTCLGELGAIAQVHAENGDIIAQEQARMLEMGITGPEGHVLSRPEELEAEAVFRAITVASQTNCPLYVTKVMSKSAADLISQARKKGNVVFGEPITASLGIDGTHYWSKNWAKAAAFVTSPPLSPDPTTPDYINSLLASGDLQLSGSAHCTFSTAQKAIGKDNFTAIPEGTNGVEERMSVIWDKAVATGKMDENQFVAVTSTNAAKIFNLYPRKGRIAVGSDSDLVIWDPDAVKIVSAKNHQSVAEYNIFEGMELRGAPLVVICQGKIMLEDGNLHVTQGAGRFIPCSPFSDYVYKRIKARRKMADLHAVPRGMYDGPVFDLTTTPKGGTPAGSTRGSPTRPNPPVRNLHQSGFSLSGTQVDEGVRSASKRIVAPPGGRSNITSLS

No constants are given. Whether binding was seen depends on the method and setting. In cells and extracts the contact can be indirect. Here binding means that the protein was enriched with, or labelled near, the bait; the list need not be complete.

The experiment addresses Trio (rat (endogenous in rat brain growth cone fraction and primary cortical neurons)) (UniProt F1M0Z1). The experiment can be described thus: affinity purification with mass spectrometry; endogenous Trio immunoprecipitated (Trio antibody, Protein A-agarose, 4 °C) from rat growth cone fractions of embryonic day 21 and postnatal day 2, solubilised in 1% Triton X-100 lysis buffer (50 mM Tris-HCl pH 7.4, 150 mM NaCl, 1 mM EDTA); gel bands digested, LC-MS/MS; N = 3 litters.

In the case of “Collapsin Response Mediator Protein 1 (CRMP1) (from UniProt Q62950 1-572)”, the binding result was “binds”. “Collapsin Response Mediator Protein 3 (CRMP3) (from UniProt Q62951 1-564)”: the binding entry is “binds”. The entry for “Collapsin Response Mediator Protein 4 (CRMP4) (from UniProt Q62952 1-570)” is “binds”.

B1: Collapsin Response Mediator Protein 5 (CRMP5) (protein, UniProt Q9JHU0 1-564)
chain: MLANSASVRILIKGGKVVNDDCTHEADVYIENGIIQQVGRELMIPGGAKVIDATGKLVIPGGIDTSTHFHQTFMNATCVDDFYHGTKAALVGGTTMIIGHVLPDKETSLVEAYEKCRALADPKVCCDYALHVGITWWAPKVKAEMETLVREKGVNSFQMFMTYKDLYMLRDSELYQVFHACRDFGAIPRVHAENGELVAEGAKEALDLGITGPEGIEISHPEELEAEATHRVITIANRTHCPIYLVNVSSISAGDVIAAAKMQGKVVLAETTNAHATLTGLHYYHQDWSHAAAYVTVPPLRLDTNTSTYLMSLLANDTLNIVASDHRPFTTKQKAMGKEDFTKIPHGVSGVQDRMSVVWERGVVGGKMDENRFVAVTSSNAAKILNLYPRKGRIIPGADADVVVWDPEATKTISASTQVQGGDFNLYENMRCHGVPLVTISRGRVVYENGVFMCAEGTGKFCPLRSFPDIVYKKLVQREKTLKVRGVDRTPYLGDVAVVVNPGKKEMGTPLADTPTRPVTRHGGMRDLHESSFSLSGSQIDDHVPKRASARILAPPGGRSSGIW
For B1, the binding entry was “binds”.
